Data as given in article PMC6910965.
Substitutions are numbered along the chain they refer to. Names and notes keep the numbering of the source. Results are given in words; binding and its absence hold for the method and conditions named. Binding seen in cells or lysates may run through a third protein. Some results given as binding are weak or reduced against the parent protein; the word gives no strength. Where a sequence is shown, tags or fusion partners need not be part of it.

B1: WT BEST1-YFP-His (protein, UniProt O76090 1-585)
chain: MTITYTSQVANARLGSFSRLLLCWRGSIYKLLYGEFLIFLLCYYIIRFIYRLALTEEQQLMFEKLTLYCDSYIQLIPISFVLGFYVTLVVTRWWNQYENLPWPDRLMSLVSGFVEGKDEQGRLLRRTLIRYANLGNVLILRSVSTAVYKRFPSAQHLVQAGFMTPAEHKQLEKLSLPHNMFWVPWVWFANLSMKAWLGGRIRDPILLQSLLNEMNTLRTQCGHLYAYDWISIPLVYTQVVTVAVYSFFLTCLVGRQFLNPAKAYPGHELDLVVPVFTFLQFFFYVGWLKVAEQLINPFGEDDDDFETNWIVDRNLQVSLLAVDEMHQDLPRMEPDMYWNKPEPQPPYTAASAQFRRASFMGSTFNISLNKEEMEFQPNQEDEEDAHAGIIGRFLGLQSHDHHPPRANSRTKLLWPKRESLLHEGLPKNHKAAKQNVRGQEDNKAWKLKAVDAFKSAPLYQRPGYYSAPQTPLSPTPMFFPLEPSAPSKLHSVTGIDTKDKSLKTVSSGAKKSFELLSESDGALMEHPEVSQVRRKTVEFNLTDMPEIPENHLKEPLEQSPTNIHTTLKDHMDPYWALENRDEAHS
B2: BEST1 A10T-YFP-His (protein, UniProt O76090 1-585)
chain: B1 chain with A10T
B3: BEST1 L234P-YFP-His (protein, UniProt O76090 1-585)
chain: B1 chain with L234P
B4: BEST1 D302A-YFP-His (protein, UniProt O76090 1-585)
chain: B1 chain with D302A
B5: BEST1 R218H-YFP-His (protein, UniProt O76090 1-585)
chain: B1 chain with R218H
B6: BEST1 A243T-YFP-His (protein, UniProt O76090 1-585)
chain: B1 chain with A243T
B7: BEST1 Q293K-YFP-His (protein, UniProt O76090 1-585)
chain: B1 chain with Q293K

biological target: T1, WT BEST1-CFP-Myc (human) (UniProt O76090); test: co-IP; HEK293 cells co-transfected 1:1 with BEST1(WT)-CFP-myc and BEST1(mutant or WT)-YFP-His; lysis in 150 mM NaCl, 50 mM Tris, 0.5% IGEPAL CA-630, pH 7.4; precipitated with Myc monoclonal antibody and Dynabeads at 4 °C; blotted for His and Myc
T1 sequence: B1 chain

binding, binds:
B1
B2
B3
B4
B5
B6
B7
